Data: publication PMC4632068

Amino acid sequences for entries named in this document (tags omitted).
UniProt P25491: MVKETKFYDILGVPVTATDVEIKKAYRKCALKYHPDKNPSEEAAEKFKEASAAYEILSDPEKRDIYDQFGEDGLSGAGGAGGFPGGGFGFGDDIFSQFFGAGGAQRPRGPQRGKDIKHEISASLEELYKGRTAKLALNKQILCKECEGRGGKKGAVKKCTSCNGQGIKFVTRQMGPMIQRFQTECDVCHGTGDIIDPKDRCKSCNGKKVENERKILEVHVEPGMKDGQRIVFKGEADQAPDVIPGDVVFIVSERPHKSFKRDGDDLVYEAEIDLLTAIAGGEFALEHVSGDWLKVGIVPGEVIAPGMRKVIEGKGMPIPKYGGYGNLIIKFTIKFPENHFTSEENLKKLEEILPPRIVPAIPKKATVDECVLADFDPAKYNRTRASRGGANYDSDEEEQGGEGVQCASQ
UniProt P07260: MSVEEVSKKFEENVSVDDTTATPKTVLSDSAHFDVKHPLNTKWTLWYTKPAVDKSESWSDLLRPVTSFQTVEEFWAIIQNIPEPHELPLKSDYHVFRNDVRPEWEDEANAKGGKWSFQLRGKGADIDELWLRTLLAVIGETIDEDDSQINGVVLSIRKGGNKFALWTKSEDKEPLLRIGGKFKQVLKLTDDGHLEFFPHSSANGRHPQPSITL

What was measured:
[1] = target: T1, Dhh1−GFP (S. cerevisiae (endogenous in BY4741-derived yeast)) (UniProt P39517); assay: affinity purification with mass spectrometry; as a1, only the purifications from cells grown in +glucose media (YPD; P-bodies not induced)
T1 sequence: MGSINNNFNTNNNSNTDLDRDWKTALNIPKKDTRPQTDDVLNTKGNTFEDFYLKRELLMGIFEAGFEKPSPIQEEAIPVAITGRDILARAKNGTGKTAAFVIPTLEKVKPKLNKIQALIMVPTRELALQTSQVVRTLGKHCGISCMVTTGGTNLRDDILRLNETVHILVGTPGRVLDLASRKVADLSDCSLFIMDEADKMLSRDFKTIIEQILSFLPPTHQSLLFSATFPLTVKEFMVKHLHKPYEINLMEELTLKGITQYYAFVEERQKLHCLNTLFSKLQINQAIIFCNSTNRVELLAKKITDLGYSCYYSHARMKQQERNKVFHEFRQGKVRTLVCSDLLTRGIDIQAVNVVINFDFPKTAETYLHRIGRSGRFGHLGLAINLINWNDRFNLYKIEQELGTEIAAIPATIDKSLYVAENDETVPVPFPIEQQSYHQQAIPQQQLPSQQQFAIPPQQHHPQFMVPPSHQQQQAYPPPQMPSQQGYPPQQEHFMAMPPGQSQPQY

[2] = target: T1, Dhh1−GFP (S. cerevisiae (endogenous in BY4741-derived yeast)); assay: affinity purification with mass spectrometry; Dhh1−GFP captured by anti-GFP IgG cross-linked to Protein-G Dynabeads from cleared lysate of cryo-ground yeast; RB buffer (30 mM K-Hepes pH 7.4, 150 mM KCl, 2 mM MgCl2, 0.2% NP-40, 0.1% Tween-20, 1 mM DTT, RNase inhibitor), 30 min at 4°; five purifications (two +glucose YPD, three 30 min −glucose YEP); hits filtered by SAINT against CRAPome controls
[3] = target: T2, Dhh1−GFP (S. cerevisiae (endogenous in BY4741-derived yeast)), P39517; assay: as above; details: remark: other sources report otherwise
T2 chain: T1 sequence

binding [2]: binds
Molecule: Ydj1 (from UniProt P25491 1-409)
binding [1]: no binding (only cells grown in +glucose media)

binding [2]: binds
Molecule: Cdc33 (from UniProt P07260 1-213)
binding [1]: no binding (only cells grown in +glucose media)

binding [2]: binds
B1: Rrg1 (protein, UniProt Q12167 1-365)
chain: MAQNFGKIPSHKSYVLSLYRTVLRNIPKCCHSYAFQYEIKKTLSIQLFKHKHDKSSWSVYTLLNEFSLLNNCLLEGKLQEIKNLMKPLKKMKKQLKTTKILNSLTSLGDVKTNDPEEVRRFHVLSAYIKRKQDLGLLPAYIPKTYQHKLLLPLALNEHACLKLFHIQQKLKNGPPSAGLSYTKEGRNQIWFVRSPINKGRQQSKKLGILIRKERKDSQKNIDNLNFCEINAAWALHEAIWEEYLESKKIIKVNLPKYLEYAANIPKSTKCNPSSQYQKVKEWVDPVREIMFELHSKSFQRVEYFNKYKEKLLKNGGQLAYFDKKSKEMYAKRLTLFRKMSKETLPYVTLFIEGRDLPSVLAKYGF

binding [2]: binds
B2: Rpc40 (protein, UniProt P07703 1-335)
chain: MSNIVGIEYNRVTNTTSTDFPGFSKDAENEWNVEKFKKDFEVNISSLDAREANFDLINIDTSIANAFRRIMISEVPSVAAEYVYFFNNTSVIQDEVLAHRIGLVPLKVDPDMLTWVDSNLPDDEKFTDENTIVLSLNVKCTRNPDAPKGSTDPKELYNNAHVYARDLKFEPQGRQSTTFADCPVVPADPDILLAKLRPGQEISLKAHCILGIGGDHAKFSPVSTASYRLLPQINILQPIKGESARRFQKCFPPGVIGIDEGSDEAYVKDARKDTVSREVLRYEEFADKVKLGRVRNHFIFNVESAGAMTPEEIFFKSVRILKNKAEYLKNCPITQ

binding [2]: no binding
B3: Pop2 (protein, UniProt P39008 1-433)
chain: MQSMNVQPRVLAVGGEQFFSQRQASEQHQQQNMGPQVYSPKVNRARMFPQGMPVNTINGSVNQEMNNAYLLKQKNEPLLTQQQQQQQQQQQPFNIGTPVSVASLPPGLNVLQQQQQQQQQQQQQQQGVGLNRPLASQLPKHLTNQSMPPIFLPPPNYLFVRDVWKSNLYSEFAVIRQLVSQYNHVSISTEFVGTLARPIGTFRSKVDYHYQTMRANVDFLNPIQLGLSLSDANGNKPDNGPSTWQFNFEFDPKKEIMSTESLELLRKSGINFEKHENLGIDVFEFSQLLMDSGLMMDDSVTWITYHAAYDLGFLINILMNDSMPNNKEDFEWWVHQYMPNFYDLNLVYKIIQEFKNPQLQQSSQQQQQQQYSLTTLADELGLPRFSIFTTTGGQSLLMLLSFCQLSKLSMHKFPNGTDFAKYQGVIYGIDGDQ

binding [2]: no binding
B4: Lsm8 (protein, UniProt P47093 1-109)
chain: MSATLKDYLNKRVVIIKVDGECLIASLNGFDKNTNLFITNVFNRISKEFICKAQLLRGSEIALVGLIDAENDDSLAPIDEKKVPMLKDTKNKIENEHVIWEKVYESKTK

binding [3]: no binding
B5: Scd6, P45978 1-349 (protein)
chain: MSQYIGKTISLISVTDNRYVGLLEDIDSEKGTVTLKEVRCFGTEGRKNWGPEEIYPNPTVYNSVKFNGSEVKDLSILDANINDIQPVVPQMMPPASQFPPQQAQSPPQAQAQAHVQTNPQVPKPESNVPAAVAGYGVYTPTSTETATASMNDKSTPQDTNVNSQSRERGKNGENEPKYQRNKNRSSNRPPQSNRNFKVDIPNEDFDFQSNNAKFTKGDSTDVEKEKELESAVHKQDESDEQFYNKKSSFFDTISTSTETNTNMRWQEEKMLNVDTFGQASARPRFHSRGLGRGRGNYRGNRGNRGRGGQRGNYQNRNNYQNDSGAYQNQNDSYSRPANQFSQPPSNVEF

binding [2]: binds
B6: Nop2 (protein, UniProt P40991 1-618)
chain: MGSRRHKNKQAAPPTLEEFQARKEKKANRKLEKGKRPSTTQGDEVSDRKKKKSKPFKKSRKEEEEVVEEDKDLPEVDLEELSKARKSLFDDEEDDDEAGLVDEELKDEFDLEQEYDYDEDEDNDAHPIFSDDDDEADLEELNAQNMEALSKKLDEEEAEEAEEAEMELVEAENMQPRADILPTEEQEEMMAQETPNLTSTRTRMIEIVKVLENFKTLGAEGRSRGEYVDRLLKDICEYFGYTPFLAEKLFNLFSPAEAMEFFEANEIARPITIRTNTLKTRRRDLAQTLVNRGVNLQPIGSWTKVGLQIFDSQVPIGATPEYLAGHYILQAASSFLPVIALDPHENERILDMAAAPGGKTTYISAMMKNTGCVFANDANKSRTKSLIANIHRLGCTNTIVCNYDAREFPKVIGGFDRILLDAPCSGTGVIGKDQSVKVSRTEKDFIQIPHLQKQLLLSAIDSVDCNSKHGGVIVYSTCSVAVEEDEAVIDYALRKRPNVKLVDTGLAIGKEAFTSYRGKKFHPSVKLARRYYPHTYNVDGFFVAKFQKIGPSSFDDNQASAKEKETAARKEALEEGIIHSDFATFEDEEDDKYIEKSVKNNLLKKGVNPKAKRPSNEK

binding [2]: no binding
B7: Suv3 (protein, UniProt P32580 26-737)
chain: YYHSEPHSIDLFHDKDWIVKRPKFLNLPKNEHSKLDIFQFNFNKSESNNVYLQDSSFKDNLDKAMQFIYNDKLSSLDAKQVPIKNLAWLKLRDYIYQQLKDPKLQAKTYVPSVSEIIHPSSPGNLISLLINCNKISNLVWKSVLKYSLSNNITTLDKFIHVLQQTFDHVYEQEILPMMTNTDDTDGAHNVDITNPAEWFPEARKIRRHIIMHIGPTNSGKTYRALQKLKSVDRGYYAGPLRLLAREVYDRFHAEKIRCNLLTGEEVIRDLDDRGNSAGLTSGTVEMVPINQKFDVVVLDEIQMMSDGDRGWAWTNALLGVVSKEVHLCGEKSVLPLVKSIVKMTGDKLTINEYERLGKLSVEEKPIKDGIKGLRKGDCVVAFSKKKILDLKLKIEKDTNLKVAVIYGSLPPETRVQQAALFNNGEYDIMVASDAIGMGLNLSIDRVVFTTNMKYNGEELMEMTSSQIKQIGGRAGRFKSRSASGGVPQGFITSFESKVLKSVRKAIEAPVEYLKTAVTWPTDEICAQLMTQFPPGTPTSVLLQTISDELEKSSDNLFTLSDLKSKLKVIGLFEHMEDIPFFDKLKLSNAPVKDMPMVTKAFTKFCETIAKRHTRGLLSYRLPFNLLDYNCIPNESYSLEVYESLYNIITLYFWLSNRYPNYFIDMESAKDLKYFCEMIIFEKLDRLKKNPYAHKPFGSTRGHLSSSRRRLRT

binding [2]: no binding
B8: Ccr4 (protein, UniProt P31384 1-837)
chain: MNDPSLLGYPNVGPQQQQQQQQQQHAGLLGKGTPNALQQQLHMNQLTGIPPPGLMNNSDVHTSSNNNSRQLLDQLANGNANMLNMNMDNNNNNNNNNNNNNNNGGGSGVMMNASTAAVNSIGMVPTVGTPVNINVNASNPLLHPHLDDPSLLNNPIWKLQLHLAAVSAQSLGQPNIYARQNAMKKYLATQQAQQAQQQAQQQAQQQVPGPFGPGPQAAPPALQPTDFQQSHIAEASKSLVDCTKQALMEMADTLTDSKTAKKQQPTGDSTPSGTATNSAVSTPLTPKIELFANGKDEANQALLQHKKLSQYSIDEDDDIENRMVMPKDSKYDDQLWHALDLSNLQIFNISANIFKYDFLTRLYLNGNSLTELPAEIKNLSNLRVLDLSHNRLTSLPAELGSCFQLKYFYFFDNMVTTLPWEFGNLCNLQFLGVEGNPLEKQFLKILTEKSVTGLIFYLRDNRPEIPLPHERRFIEINTDGEPQREYDSLQQSTEHLATDLAKRTFTVLSYNTLCQHYATPKMYRYTPSWALSWDYRRNKLKEQILSYDSDLLCLQEVESKTFEEYWVPLLDKHGYTGIFHAKARAKTMHSKDSKKVDGCCIFFKRDQFKLITKDAMDFSGAWMKHKKFQRTEDYLNRAMNKDNVALFLKLQHIPSGDTIWAVTTHLHWDPKFNDVKTFQVGVLLDHLETLLKEETSHNFRQDIKKFPVLICGDFNSYINSAVYELINTGRVQIHQEGNGRDFGYMSEKNFSHNLALKSSYNCIGELPFTNFTPSFTDVIDYIWFSTHALRVRGLLGEVDPEYVSKFIGFPNDKFPSDHIPLLARFEFMKTNTGSKKV

binding [2]: binds
B9: Pet130 (protein, UniProt P47065 1-347)
chain: MKIFSTLLSQKPKGKLVIRPSTTIHSSDPFSKFIVTKNTEPLSLGDLRKSDSGNSAVCLNAENTILSTLTDLQKEEERNWDPVKFVAGKLRGVISPIQAYVTIGKKFSPNSLVYTSRFFQLHYFPEDHFMSCFRKSKPAITVKSNKKFYLNGKVFNKDKEYFNETRISKANEVELSKIQTAMTRLTNRHRNSIPSEFAYLRRDLKLKVKTTFIKEWCKLNGDKAIREYVNLNRSPNINPASMKGKPKKSFLDNLGRSTVGTAKDGYYLYIVSIFPDKDMLGEFNDEVNRSVQKVANLDWDGFLTPKKGTKGKNWVESFNDSINVQTINKILEINKFPFELRREQTEG

binding [2]: binds
B10: Mss116 (protein, UniProt P15424 27-664)
chain: NHITWAVSRRLYNDGNRDQRNFGRNQRNNNSNRYRNSRFNSRPRTRSREDDDEVHFDKTTFSKLIHVPKEDNSKEVTLDSLLEEGVLDKEIHKAITRMEFPGLTPVQQKTIKPILSSEDHDVIARAKTGTGKTFAFLIPIFQHLINTKFDSQYMVKAVIVAPTRDLALQIEAEVKKIHDMNYGLKKYACVSLVGGTDFRAAMNKMNKLRPNIVIATPGRLIDVLEKYSNKFFRFVDYKVLDEADRLLEIGFRDDLETISGILNEKNSKSADNIKTLLFSATLDDKVQKLANNIMNKKECLFLDTVDKNEPEAHERIDQSVVISEKFANSIFAAVEHIKKQIKERDSNYKAIIFAPTVKFTSFLCSILKNEFKKDLPILEFHGKITQNKRTSLVKRFKKDESGILVCTDVGARGMDFPNVHEVLQIGVPSELANYIHRIGRTARSGKEGSSVLFICKDELPFVRELEDAKNIVIAKQEKYEPSEEIKSEVLEAVTEEPEDISDIVISLISSYRSCIKEYRFSERRILPEIASTYGVLLNDPQLKIPVSRRFLDKLGLSRSPIGKAMFEIRDYSSRDGNNKSYDYDDDSEISFRGNKNYNNRSQNRDYDDEPFRRSNNNRRSFSRSNDKNNYSSRNSNIY

Results are given in words; binding and its absence hold for the method and conditions named. In cells and extracts the contact can be indirect. A yes stands for co-enrichment or nearness to the bait. Other partners may have been found. A no says only that the protein was not detected with the bait. Tags and fused reporters may be left off the sequences shown. Each block holds one molecule with its values, some of them ahead of it.
